Publication PMC9270402
No constants are given. Whether binding was seen depends on the method and setting. Binding seen in cells or lysates may run through a third protein. Some results given as binding are weak or reduced against the parent protein; the word gives no strength. Values belong to the substance of their own block, whether it stands above or below them.

Protein sequences, listed by entry. Tags and fused reporters are not part of them. Residues count along the entry.
Mast4-PDZ (truncated Mast4 construct containing a DUF, kinase, and PDZ domain; a.a.1-a.a.1229) (O15021, residues 1-1229): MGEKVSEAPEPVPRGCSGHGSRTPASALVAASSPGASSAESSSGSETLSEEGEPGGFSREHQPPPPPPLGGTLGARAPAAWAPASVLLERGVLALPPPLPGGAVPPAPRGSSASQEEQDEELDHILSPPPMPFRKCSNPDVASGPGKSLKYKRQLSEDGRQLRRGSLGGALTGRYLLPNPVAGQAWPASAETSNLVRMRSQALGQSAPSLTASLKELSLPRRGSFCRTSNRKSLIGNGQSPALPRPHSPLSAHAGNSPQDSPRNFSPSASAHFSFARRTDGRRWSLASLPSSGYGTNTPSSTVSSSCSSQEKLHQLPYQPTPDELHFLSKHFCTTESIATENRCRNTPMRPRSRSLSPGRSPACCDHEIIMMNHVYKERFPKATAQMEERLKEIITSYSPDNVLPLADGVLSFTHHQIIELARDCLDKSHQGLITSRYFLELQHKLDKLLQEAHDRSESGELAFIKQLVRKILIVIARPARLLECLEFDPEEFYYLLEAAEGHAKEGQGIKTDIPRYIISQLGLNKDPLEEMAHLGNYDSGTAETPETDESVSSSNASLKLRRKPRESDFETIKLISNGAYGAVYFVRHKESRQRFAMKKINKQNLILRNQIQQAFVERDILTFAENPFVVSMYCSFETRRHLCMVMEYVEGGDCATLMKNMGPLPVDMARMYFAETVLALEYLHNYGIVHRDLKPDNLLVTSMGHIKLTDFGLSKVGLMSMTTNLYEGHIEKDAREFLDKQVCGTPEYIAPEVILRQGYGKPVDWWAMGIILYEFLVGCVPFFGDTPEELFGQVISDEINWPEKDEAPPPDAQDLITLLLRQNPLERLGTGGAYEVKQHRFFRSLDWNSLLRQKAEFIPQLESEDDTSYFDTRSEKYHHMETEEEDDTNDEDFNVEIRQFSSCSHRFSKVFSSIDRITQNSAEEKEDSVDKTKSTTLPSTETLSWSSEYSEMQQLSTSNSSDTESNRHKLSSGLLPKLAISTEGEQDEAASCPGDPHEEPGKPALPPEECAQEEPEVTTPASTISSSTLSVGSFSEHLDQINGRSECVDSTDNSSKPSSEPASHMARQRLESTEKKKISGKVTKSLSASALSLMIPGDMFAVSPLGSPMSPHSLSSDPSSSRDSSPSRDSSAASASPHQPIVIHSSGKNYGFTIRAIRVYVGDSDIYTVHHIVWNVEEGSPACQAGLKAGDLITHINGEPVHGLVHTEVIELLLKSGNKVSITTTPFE
kinase domain of Mast4 (O15021, residues 570-843): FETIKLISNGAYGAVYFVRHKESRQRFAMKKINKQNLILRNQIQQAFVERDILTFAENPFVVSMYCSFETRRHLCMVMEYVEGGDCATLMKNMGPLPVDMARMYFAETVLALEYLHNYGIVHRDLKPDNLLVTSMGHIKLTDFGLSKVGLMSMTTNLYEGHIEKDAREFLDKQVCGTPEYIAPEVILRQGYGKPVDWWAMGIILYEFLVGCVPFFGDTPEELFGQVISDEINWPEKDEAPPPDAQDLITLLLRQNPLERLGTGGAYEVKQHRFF
UniProt P48436: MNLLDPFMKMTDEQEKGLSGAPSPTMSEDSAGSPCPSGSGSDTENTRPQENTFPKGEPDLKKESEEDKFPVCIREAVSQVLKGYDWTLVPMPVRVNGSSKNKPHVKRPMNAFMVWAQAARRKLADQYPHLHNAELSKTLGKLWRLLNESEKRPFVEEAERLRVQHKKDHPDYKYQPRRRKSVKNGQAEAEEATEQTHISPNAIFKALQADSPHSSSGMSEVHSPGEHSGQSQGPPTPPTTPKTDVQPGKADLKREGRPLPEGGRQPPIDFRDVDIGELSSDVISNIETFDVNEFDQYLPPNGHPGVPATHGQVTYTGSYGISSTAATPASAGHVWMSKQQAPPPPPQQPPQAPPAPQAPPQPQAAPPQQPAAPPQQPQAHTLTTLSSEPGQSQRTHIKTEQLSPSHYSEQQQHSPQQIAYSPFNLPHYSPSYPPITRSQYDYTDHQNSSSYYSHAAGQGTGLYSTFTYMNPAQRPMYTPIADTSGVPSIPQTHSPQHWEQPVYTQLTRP
UniProt Q9HCE7: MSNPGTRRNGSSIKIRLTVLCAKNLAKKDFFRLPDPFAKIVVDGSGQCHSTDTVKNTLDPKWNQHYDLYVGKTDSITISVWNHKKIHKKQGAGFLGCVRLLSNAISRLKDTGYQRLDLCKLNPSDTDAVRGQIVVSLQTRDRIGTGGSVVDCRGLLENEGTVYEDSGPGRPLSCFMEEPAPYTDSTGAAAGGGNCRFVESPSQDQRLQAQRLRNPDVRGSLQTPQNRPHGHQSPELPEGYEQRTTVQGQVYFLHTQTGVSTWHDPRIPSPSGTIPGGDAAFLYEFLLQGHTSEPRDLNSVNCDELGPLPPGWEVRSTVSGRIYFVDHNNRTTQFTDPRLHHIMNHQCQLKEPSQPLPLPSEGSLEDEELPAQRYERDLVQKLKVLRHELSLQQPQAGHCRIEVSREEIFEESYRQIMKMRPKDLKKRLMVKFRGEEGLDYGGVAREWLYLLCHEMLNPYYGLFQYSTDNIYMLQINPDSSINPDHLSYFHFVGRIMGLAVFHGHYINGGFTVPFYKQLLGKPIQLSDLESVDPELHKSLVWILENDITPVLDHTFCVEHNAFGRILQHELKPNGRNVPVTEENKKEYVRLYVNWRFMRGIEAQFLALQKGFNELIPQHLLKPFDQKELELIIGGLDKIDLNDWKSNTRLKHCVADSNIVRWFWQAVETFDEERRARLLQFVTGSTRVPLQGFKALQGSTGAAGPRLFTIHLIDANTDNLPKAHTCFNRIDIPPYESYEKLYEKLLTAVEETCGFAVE
UniProt P84022: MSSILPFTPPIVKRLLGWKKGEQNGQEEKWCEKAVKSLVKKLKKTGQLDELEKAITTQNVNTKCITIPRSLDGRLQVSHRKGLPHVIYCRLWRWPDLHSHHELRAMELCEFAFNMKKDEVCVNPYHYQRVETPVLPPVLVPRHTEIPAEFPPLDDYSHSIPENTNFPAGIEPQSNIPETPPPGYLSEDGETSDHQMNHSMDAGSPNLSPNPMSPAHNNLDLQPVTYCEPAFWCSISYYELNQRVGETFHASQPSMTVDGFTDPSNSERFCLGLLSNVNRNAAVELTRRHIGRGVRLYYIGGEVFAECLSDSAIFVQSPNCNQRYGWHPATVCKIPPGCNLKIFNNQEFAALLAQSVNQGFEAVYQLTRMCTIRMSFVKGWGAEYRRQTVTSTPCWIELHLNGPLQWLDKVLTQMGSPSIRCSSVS
UniProt P49841: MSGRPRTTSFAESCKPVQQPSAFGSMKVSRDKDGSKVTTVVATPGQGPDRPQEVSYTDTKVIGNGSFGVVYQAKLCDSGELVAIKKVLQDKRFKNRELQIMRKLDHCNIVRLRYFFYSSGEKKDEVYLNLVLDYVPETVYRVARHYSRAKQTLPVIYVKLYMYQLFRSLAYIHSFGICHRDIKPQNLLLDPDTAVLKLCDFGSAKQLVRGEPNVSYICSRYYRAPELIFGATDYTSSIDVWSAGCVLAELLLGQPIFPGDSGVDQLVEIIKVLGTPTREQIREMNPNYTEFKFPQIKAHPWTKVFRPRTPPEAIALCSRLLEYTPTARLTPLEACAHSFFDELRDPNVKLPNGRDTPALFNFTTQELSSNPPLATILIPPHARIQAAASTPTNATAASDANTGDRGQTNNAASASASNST

Experiments:
[1] = biological target: kinase domain of Mast4 (UniProt O15021); experiment: co-IP; Supplementary Fig. 16b, c (blots; legend not shown); mapping of the Mast4 domain that binds GSK-3β and Smurf1
[2] = biological target: Mast4-PDZ (truncated Mast4 construct containing a DUF, kinase, and PDZ domain; a.a.1-a.a.1229) (UniProt O15021); experiment: co-IP; Smurf1, Mast4-PDZ and GSK-3β transfected to C3H10T1/2 cells, with CHIR-99021 treatment (10 μM for 9 h); immunoprecipitation assay (Fig. 4f)
[3] = biological target: HA-Sox9 (UniProt P48436); experiment: co-IP; Sox9 and Smad3 co-transfected to wild-type and Mast4-depleted C3H10T1/2 cells, TGF-β1 5 ng/ml for 30 min; Sox9 immunoprecipitated using HA antibody, GFP-Smad3 detected (Fig. 3a)
[4] = biological target: Sox9 (co-transfected with Mast4-PDZ, Fig. 2e) (UniProt P48436); experiment: co-IP; Mast4-PDZ and Sox9 transfected to C3H10T1/2 cells; cell extracts incubated with primary antibody overnight at 4 °C, Dynabeads Protein G, western blot (Fig. 2e)

binding [1]: binds
binding [2]: binds
Substance: Smurf1 (from UniProt Q9HCE7 1-757) (enzyme)

binding [3]: binds
Substance: GFP-Smad3 (from UniProt P84022 1-425)

binding [4]: binds
Substance: Mast4-PDZ (truncated Mast4 construct containing a DUF, kinase, and PDZ domain; a.a.1-a.a.1229) (from UniProt O15021 1-1229) (domain or fragment)

binding [1]: binds
Substance: GSK-3β (from UniProt P49841 1-420) (enzyme)
